# Earlier results in patent US8986418B1, “Method and system for agricultural fertigation” (priority 2008, dated 2015).
# At least one structure is not confirmed: it was looked up by name or label, or the drawing left a doubt.
smiles,measurement,setting,value
[H+] [H^+],Solubility with anion OH^−,anion OH^−,H2O
same,Solubility with anion S^−2,anion S^−2,H2S
